PubChem BioAssay AID1487 (National Center for Advancing Translational Sciences (NCATS), 2009)
The list shows a part of the results. Further columns of the screen follow, without active or inactive calls. The list favours compounds with an active or inconclusive main result. The note in brackets gives the kind of curve behind each potency; many fits are weak.

Assay: qHTS Assay for Modulators of Lamin A Splicing
Details: HeLa LMNA splicing GFP/RFP minigene ratio, 48 h
Summary of the method: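 Read-out is the ratio of GFP to DsRed2 object intensity, acquired by 488 nm laser-scanning cytometry on HeLa lamin A-EGFP minigene reporter cells. Compound incubation 48 hrs at 37 °C in Opti-MEM with 2% FBS; DMSO 0.5% final.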

[1] = measured here: GFP splicing reporter channel
[2] = measured here: RFP viability control channel

Structure (SMILES)	AC50 [1]	AC50 [2]
Cc1cc(=O)[nH]c(SCC(=O)NCCC2=CCCCC2)n1	1.26 µM [rising, full curve, poor fit]	–
COc1cc(NC(=O)c2cc3c(C)nc4ccccc4c3o2)cc(OC)c1OC	–	10 µM [rising, partial curve]
N#Cc1c(NC(=O)CCCl)sc2c1CCCCC2	3.55 µM [falling, partial curve]	35.5 µM [falling, single point]
Cc1cc(OC(F)F)ccc1NC(=O)Nc1ccc([N+](=O)[O-])cc1	–	11.2 µM [rising, partial curve]
Cc1ccccc1Cn1ccc(=NCc2ccccc2)cc1	17.8 µM [rising, partial curve]	11.2 µM [rising, partial curve]
O=C(CC1(O)C(=O)N(Cc2cccc3ccccc23)c2ccccc21)c1cccnc1 (configuration not stated)	17.8 µM [rising, partial curve, poor fit]	14.1 µM [rising, partial curve, poor fit]
COc1cccc(-c2cc(N(C)Cc3ccco3)ncn2)c1	22.4 µM [falling, single point]	20 µM [falling, single point]
Cc1cccc(NC(=O)COc2ccc3oc4c(c3c2)CCCC4)n1	–	35.5 µM [rising, single point]
O=C(Nc1ccccc1)c1ccc(S(=O)(=O)N2CCCCC2)cc1	–	35.5 µM [rising, single point]
COCC(C)N=C1NN=C(c2cc(C)n(Cc3ccccc3Cl)c2C)CS1 (configuration not stated)	12.6 µM [falling, partial curve]	–
COc1ccc(NC(=O)c2cc(S(=O)(=O)N(Cc3ccccc3)c3ccccc3)ccc2Cl)cn1	35.5 µM [rising, single point]	35.5 µM [rising, single point]
Cc1c([N+](=O)[O-])cc(C(=O)Nc2ccc(Cc3ccncc3)cc2)cc1[N+](=O)[O-]	35.5 µM [rising, single point]	31.6 µM [rising, single point]
CC(C)=CCc1c2c(c(O)c3c(=O)c(O)c(-c4ccccc4)oc13)C=CC(C)(C)O2	11.2 µM [falling, partial curve]	3.16 µM [rising, full curve, poor fit]
N#Cc1ccc(NC(=O)COC(=O)C2Cc3ccccc3CN2C(=O)c2ccccc2)cc1 (configuration not stated)	–	5.62 µM [rising, partial curve]
CCCC(=O)Nc1cccc(-c2cn3cccnc3n2)c1	0.282 µM [rising, single point]	–
CC(=O)c1ccc(NC(=O)C2CC(=O)N(Cc3ccccc3)C2)cc1 (configuration not stated)	15.8 µM [rising, single point]	5.62 µM [rising, single point]
Cc1csc2ncnc(NC3CCN(Cc4ccccc4)CC3)c12	3.16 µM [falling, partial curve, poor fit]	6.31 µM [falling, partial curve, poor fit]
CCOC(=O)c1ccccc1NC(=O)c1ccc(F)cc1	–	10 µM [falling, partial curve, poor fit]
COc1ccc(NC(=O)C2CCN(C(=O)N3CCOc4ccccc43)CC2)cc1	25.1 µM [falling, partial curve]	–
CC(=O)Nc1nc(C)c(-c2csc(Nc3ccc(O)cc3)n2)s1	–	3.55 µM [rising, full curve]
COC(=O)c1c(C)[nH]c(C(=O)OCC(=O)NC(C)(C)C)c1C	–	11.2 µM [rising, partial curve]
CCOC(=O)C1CCCN(CCC(=O)Nc2ccc(C)c(C)c2)C1 (configuration not stated)	–	0.00398 µM [rising, full curve, poor fit]
Cc1ccc(/C=N/Nc2nnc(Cl)c3ccccc23)cc1	8.91 µM [rising, partial curve, poor fit]	8.91 µM [rising, partial curve, poor fit]
Cc1ccc(C)c(NC(=O)c2ccccc2Sc2ccc([N+](=O)[O-])cc2Cl)c1	–	35.5 µM [rising, single point]
Cc1cc(C)nc(SCC(=O)c2cc3ccccc3oc2=O)n1	–	8.91 µM [rising, partial curve]
CCn1cc(C(=O)O)c(=O)c2cc(F)c(N3CCN(S(=O)(=O)c4ccc5c(c4)OCCO5)CC3)cc21	3.55 µM [falling, full curve]	0.0794 µM [falling, full curve, poor fit]
Cc1ccccc1NC(=S)NCCc1c[nH]c2ccccc12	–	35.5 µM [rising, single point]
Nc1ccc(C23CC4CC(CC(C4)C2)C3)cc1	0.0158 µM [falling, full curve]	0.00355 µM [falling, full curve, poor fit]

Two entries from above, as a markdown table:

| Structure (SMILES) | AC50 [1] | AC50 [2] |
| --- | --- | --- |
| Cc1cc(OC(F)F)ccc1NC(=O)Nc1ccc([N+](=O)[O-])cc1 | – | 11.2 µM [rising, partial curve] |
| Cc1ccccc1Cn1ccc(=NCc2ccccc2)cc1 | 17.8 µM [rising, partial curve] | 11.2 µM [rising, partial curve] |

Remaining list, next part:

Structure (SMILES)	AC50 [1]	AC50 [2]
CCNC(=O)/C(C#N)=C/c1c(N(Cc2ccccc2)Cc2ccccc2)nc2ccccn2c1=O	–	14.1 µM [rising, single point]
CCOc1ccc(C(=O)c2cc([N+](=O)[O-])ccc2N2CCOCC2)cc1	0.316 µM [rising, full curve]	0.158 µM [rising, full curve]
CC(C)C(=O)NC(Nc1cc(C(F)(F)F)ccc1Cl)C(Cl)(Cl)Cl (configuration not stated)	–	12.6 µM [rising, partial curve]
CN1/C(=C\C(=O)CSc2nnc(NCc3ccccc3)s2)C(C)(C)c2ccccc21	11.2 µM [rising, partial curve]	15.8 µM [rising, partial curve]
Cn1nnnc1SCC(=O)N1c2ccccc2Sc2ccc(Cl)cc21	–	35.5 µM [rising, single point]
c1ccc(-c2nc(N3CCN(c4ccccc4)CC3)nc(-n3ccnc3)n2)cc1	12.6 µM [rising, partial curve]	22.4 µM [rising, single point]
COc1cc(NC2=Nc3cccc4cccc2c34)cc(OC)c1OC	–	35.5 µM [rising, single point]
O=C(O)/C=C\c1ccc(Cn2ccnc2)cc1	0.00891 µM [falling, full curve, poor fit]	0.00891 µM [falling, full curve, poor fit]
Cc1ccc(Cn2nnc3c(=O)[nH]c(C4CCN(S(=O)(=O)c5ccc(F)cc5)CC4)nc32)cc1	–	35.5 µM [rising, single point]
CC(C)CNC(=S)NNC(=O)c1csc2c1CCC(C)C2 (configuration not stated)	–	22.4 µM [rising, single point]
COc1ccc(NS(=O)(=O)c2cc(NC(=O)CNC(=O)c3cccc(OC)c3)ccc2C)cc1	–	3.16 µM [falling, single point]
CC(=O)c1cccc(NC2c3ccccc3C(=O)N2Cc2ccc3c(c2)OCO3)c1 (configuration not stated)	–	12.6 µM [rising, single point]
O=C1c2ccccc2-c2cccc(NS(=O)(=O)c3ccc(C(F)(F)F)cc3)c21	22.4 µM [rising, single point]	35.5 µM [rising, single point]
Cc1ccc(OCC(O)Cn2c(=N)n(CCN3CCOCC3)c3ccccc32)cc1 (configuration not stated)	35.5 µM [rising, single point]	35.5 µM [rising, single point]
CCCc1cnc2c(c1SCC(=O)Nc1c(C)cc(C)cc1C)c(=O)n(C)c(=O)n2C	10 µM [rising, partial curve, poor fit]	2.24 µM [rising, full curve]
COc1cccc(CN(C)c2nc(-c3cccs3)nc3ccccc23)c1	11.2 µM [rising, single point]	22.4 µM [rising, single point]
CCC1(C)CC(CCNS(=O)(=O)c2ccc(C)cc2)(c2ccc(C)cc2)CCO1 (configuration not stated)	15.8 µM [falling, single point]	14.1 µM [falling, partial curve]
CC(C)(NO)/C(=N\O)c1ccc(Cl)cc1	–	20 µM [falling, partial curve]
CSc1nc(N)nc(SCC(=O)c2ccc(C)cc2)c1C#N	–	12.6 µM [rising, single point]
CCOC(=O)/C(=N/Nc1ccc(Cl)cc1)S(=O)(=O)c1ccccc1	–	35.5 µM [rising, single point]
Cc1cc(C)cc(N(C(=O)c2nsc(Cl)c2Cl)C(C(=O)NC2CCCC2)c2ccc(O)cc2)c1 (configuration not stated)	–	17.8 µM [rising, partial curve]
O=C(/C=C/c1cn(CC(O)CN2CCCCCC2)c2ccccc12)c1cccs1 (configuration not stated)	–	25.1 µM [rising, single point]
Cc1ccc(OCc2nnc(SCC(=O)Nc3ccccc3C(C)C)o2)cc1	–	0.0398 µM [falling, full curve, poor fit]
Cc1cccc(NS(=O)(=O)c2cnc[nH]2)c1	–	0.891 µM [falling, full curve, poor fit]
CC(=O)c1ccc(OCC(O)CN2CCN(CCN3C(=O)c4cccc5cccc(c45)C3=O)CC2)cc1 (configuration not stated)	20 µM [rising, single point]	17.8 µM [rising, single point]
Cc1ccc2[nH]c(=O)c(CN(C(=O)c3cccs3)c3ccccc3)cc2c1	–	0.891 µM [falling, full curve, poor fit]
C/C(=N/NC(=O)CCCOc1ccc(Cl)cc1Cl)c1ccc(C)o1	–	35.5 µM [rising, single point]
